This note sets out measurements from PMC11150584.

Amino acid sequences for entries named in this document (tags omitted).
UniProt P18266: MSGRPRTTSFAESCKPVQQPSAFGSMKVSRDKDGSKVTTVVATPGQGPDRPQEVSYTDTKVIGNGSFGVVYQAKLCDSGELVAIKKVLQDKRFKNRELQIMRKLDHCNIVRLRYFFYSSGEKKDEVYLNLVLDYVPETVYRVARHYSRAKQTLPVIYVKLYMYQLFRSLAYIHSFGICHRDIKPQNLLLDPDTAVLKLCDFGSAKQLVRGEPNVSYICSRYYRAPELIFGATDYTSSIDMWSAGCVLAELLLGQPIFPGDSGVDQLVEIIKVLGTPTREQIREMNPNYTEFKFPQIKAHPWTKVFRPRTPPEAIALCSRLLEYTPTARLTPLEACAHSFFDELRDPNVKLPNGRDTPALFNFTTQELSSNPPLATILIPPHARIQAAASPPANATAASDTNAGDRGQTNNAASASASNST

The target in this assay is Glycogen synthase kinase-3β (GSK-3β) (rat (endogenous in P7 Sprague-Dawley rat brain)) (UniProt P18266). Put plainly: co-IP; P7 rat brain lysates (1.0 mg total protein, RIPA buffer) of control and ketamine-treated rats (20 mg/kg at 90 min intervals over 6 h); precleared with protein A/G agarose; anti-GSK-3β antibody overnight, protein A/G agarose 2 h at 4°C; blot with anti-DISC1 and anti-GSK-3β; negative control without the anti-GSK-3β antibody.

These are yes or no findings as the source states them, for the method shown. Binding seen in cells or lysates may run through a third protein. Some entries that bind do so weakly or less than the wild type.

B1: Disrupted in schizophrenia-1 (DISC1) (protein, UniProt Q810H6 1-846)
chain: MQGAGSRGAWIHSPSHCPGNGHGSPPAVAPQRRRLTRRPGYMRSTASPGIGFLSPAVGMPRPISAGLTGQEFYPSQSKARQCSLDLRSHCQDSLVGNPFLKGSLGPAVTSVGHLHPAQGSMRERMVHSGVHSGNDRRQSERLTGDSGCRQEFLSSDSSKSLASSLDVAWSKGSRGLKTVRPLVSPASNGPVDIPSLPGFQDTFTSNFSFIRLSLGAAGERGEAEGCLPSREAEPLHQSPQEMAAEGSGSDRPHGEPRHLWTFSLHAAPGLVDLAQGTRSNRQPECGMVSSSDAGFSSQDASPAGGRSDQDGGWADAHGWHALLREWEPMLQDYLLSNRRQLEVTSLILKLQKLQEKAVEDGDYDMAETLRQRLEDLEQEKGRLPWALPSQQPALRSFLGYLATQTHAALHGAPQRAGSDDPEAPLEGQRRTTAQDSLPGLAVTRRDWLMREKEQLQKEIEALRARVSVLEAKEQRLSQELEDQEMLLRWQGCDQMALVAQLSPGQLQEVSKALGETLTSARWAPFRVEPPETLRSLRERTKSLDLAVRELTEQVCSGEKLCSSLRKRLADLDTRLPALLEAKMLALSGSCFSTAKELAEEIWAVSSEREGLEMFLGRLLALSSRNTRRLGSVKEDYLRCRQDLALQEAAHKTRVKANTVKCTEVLEGQLSCCRCPLLERVWKADLEACQLLMQSLEIQEAGSSSHVEDEKQVHSTGEAAQTAALAVPRTPHPEEEKSPLQVLCEWNTYSASLPHCAAGLWKEESHVVFAEVGDKCEAIGMRLLHLEDQLLGAMHGHDEALFQSLQGELQMVKETLQTMFLQLQPAKEAGGEASASYSTAGAQEAED
In the case of B1, the binding result was “binds”.
